# No constants are given. Whether binding was seen depends on the method and setting. Some results given as binding are weak or reduced against the parent protein; the word gives no strength.
# T1: human ribonucleotide reductase large subunit (alpha) (human) (UniProt P23921)
# T1 sequence: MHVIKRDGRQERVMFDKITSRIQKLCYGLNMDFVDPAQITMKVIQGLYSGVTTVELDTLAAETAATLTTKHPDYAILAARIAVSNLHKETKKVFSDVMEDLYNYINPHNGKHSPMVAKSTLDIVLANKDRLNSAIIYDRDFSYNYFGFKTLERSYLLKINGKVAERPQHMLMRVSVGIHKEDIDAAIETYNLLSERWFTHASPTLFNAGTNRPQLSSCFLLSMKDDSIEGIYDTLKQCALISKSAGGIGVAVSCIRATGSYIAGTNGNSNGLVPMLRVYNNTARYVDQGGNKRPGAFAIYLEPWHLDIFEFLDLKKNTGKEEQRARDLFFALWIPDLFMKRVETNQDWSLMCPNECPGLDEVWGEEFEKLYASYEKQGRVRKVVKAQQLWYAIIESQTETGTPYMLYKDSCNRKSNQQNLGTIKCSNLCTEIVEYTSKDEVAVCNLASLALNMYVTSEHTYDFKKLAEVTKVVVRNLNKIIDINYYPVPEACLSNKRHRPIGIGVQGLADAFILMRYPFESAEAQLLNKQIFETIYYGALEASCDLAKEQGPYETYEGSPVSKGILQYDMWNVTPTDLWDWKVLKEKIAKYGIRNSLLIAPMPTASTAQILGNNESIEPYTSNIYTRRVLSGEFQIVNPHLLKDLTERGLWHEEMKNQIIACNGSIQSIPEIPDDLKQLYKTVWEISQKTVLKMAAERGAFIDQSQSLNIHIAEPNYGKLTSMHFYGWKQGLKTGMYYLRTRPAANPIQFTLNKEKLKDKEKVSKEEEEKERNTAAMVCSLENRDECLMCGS
# B1: human ribonucleotide reductase β subunit (enzyme)
# chain: TKAAAPGVEDEPLLRENPRRFVIFPIEYHDIWQMYKKAEASFWTAEEVDLSKDIQHWESLKPEERYFISHVLAFFAASDGIVNENLVERFSQEVQITEARCFYGFQIAMENIHSEMYSLLIDTYIKDPKEREFLFNAIETMPCVKKKADWALRWIGDKEATYGERVVAFAAVEGIFFSGSFASIFWLKKRGLMPGLTFSNELISRDEGLHCDFACLMFKHLVHKPSEERVREIIINAVRIEQEFLTEALPVKLIGMNCTLMKQYIEFVADRLMLELGFSKVFRVENPFDFMENISLEGKTNFFEKRVGEYQRMGVMSSPTENSFTLDADF
# notes: human ribonucleotide reductase β (small) subunit, homodimer β2 with the diferric-tyrosyl radical cofactor; also called β2; human β
# Tests used:
# [1] = molecular target: T1, human ribonucleotide reductase large subunit (alpha) (human); assay: negative stain EM; 3 μM α and 3 μM β with 3 mM ATP, 0.05 mM dATP, 1 mM CDP in 50 mM HEPES pH 7.6, 15 mM MgCl2, 50 mM KCl, 5 mM DTT, 37°C for 2 min, diluted ~20 fold; ISAC averages; both purified
# [2] = molecular target: T1, human ribonucleotide reductase large subunit (alpha) (human); assay: cryo-EM structure; 15 μM α and 16.5 μM β with 100 μM dGTP and a 5-fold molar excess of ClFTP over α, 37°C, diluted 75-fold into 50 mM HEPES pH 7.6, 15 mM Mg2SO4, 150 mM NaCl, 0.5 mM ATP; ISAC averages and low-resolution 3D reconstruction; both purified
binder,measurement,setting,value
B1,binding,[1],binds weakly
same,binding,[2],binds weakly

# — publication PMC5819950, “3.3-Å resolution cryo-EM structure of human ribonucleotide reductase with substrate and allosteric regulators bound” (eLife, 2018)
